This is one part of the list. These are further read-outs of the screen, such as a control signal, another cell line or another target. No call is given for them. Compounds called inactive in the main read-out are mostly missing here. Potencies come from curve fits of mixed quality, noted in brackets.
Assay: qHTS Assay to Find Inhibitors of Chronic Active B-Cell Receptor Signaling
Conditions: ABC-DLBCL IkBa-CBG/CBR reporter, luminescence ratio (green luciferase fused to IkBa over red control in TMD8 lymphoma cells), 4 h
Method in brief: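 Doxycycline induced both beetle luciferases in TMD8 lymphoma cells; IKK-driven degradation limits the IkappaBalpha-fused green signal, while red luminescence normalises for cell number and nonspecific effects. Compounds tested up to 46 uM, 4 hrs.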

[1] = measured here: CBR red luminescence, cell number
[2] = measured here: IkBa-CBG green luminescence

Which AC50 [1] does the source give for `S=C1CCC(c2ccc(Cl)cc2)=NN1c1ccccc1` here?
Its AC50 is 1.26 µM [rising, full curve].

With `COc1ccc(OC)c(-n2c(C)ccc2-c2ccc(S(C)(=O)=O)cc2)c1` as the compound, how does the AC50 [1] read?
Its AC50 is 29.1 µM [rising, single point].

For `O=C(N/N=C/c1c(O)n(Cc2ccco2)c(=O)[nH]c1=O)c1ccccc1`, which AC50 [1] is on record?
The AC50 was 3.16 µM [falling, full curve].

For `Cn1c(C(=O)OCC(=O)NCC2CCCO2)cc2sccc21` (configuration not stated), which AC50 [1] is on record?
The AC50 was 23.1 µM [rising, partial curve, poor fit].

With `Cc1[nH]c2ccccc2c1C(c1ccccn1)c1c(C)[nH]c2ccccc12` as the compound, how does the AC50 [1] read?
The AC50 was 7.31 µM [falling, partial curve, poor fit].

For `NC(=O)CC(NC(=O)Cc1ccc(Br)cc1)c1ccc(N2CCc3ccccc3C2)c([N+](=O)[O-])c1` (configuration not stated), which AC50 [1] is on record?
The AC50 was 35.5 µM [falling, single point].

Which AC50 [1] does the source give for `COCCn1c(SCC(=O)Nc2cccnc2Cl)nc2cc(Cl)ccc2c1=O` here?
The AC50 was 23.1 µM [rising, single point].

With `CCOC(=O)Cn1cc(/C=C(\C#N)C(=O)N2CCOCC2)c2ccccc21` as the compound, how does the AC50 [1] read?
Its AC50 is 11.2 µM [rising, partial curve].

For `COc1ccccc1CC(NC(C)=O)C(=O)NC1CCN(C(=O)NCc2ccccc2)CC1` (configuration not stated), which AC50 [1] is on record?
Its AC50 is 6.31 µM [rising, full curve, poor fit].

For `O=C(COc1ccccc1)NC1CC(=O)N(c2ccc3c(c2)OCCO3)C1` (configuration not stated), which AC50 [1] is on record?
Its AC50 is 17.8 µM [falling, single point].

For `Cc1[nH]c2ccc(C(=O)N3CCN(c4ccc(F)cc4)CC3)cc2c1C`, which AC50 [1] is on record?
The AC50 was 6.31 µM [falling, partial curve, poor fit].

For `O=C(Nc1nc2ccc(Cl)cc2s1)c1cccc(N2C(=O)CCC2=O)c1`, which AC50 [1] is on record?
Its AC50 is 10.3 µM [falling, single point].

With `Cc1ccc(-c2ccc(NC(=O)C3C4C=CC(C4)C3C(=O)O)cc2)o1` (configuration not stated) as the compound, how does the AC50 [1] read?
The AC50 was 20.6 µM [falling, partial curve, poor fit].

With `CC(=O)N(CCCN(C)C)Cc1ccccn1` as the compound, how does the AC50 [1] read?
The AC50 was 3.98 µM [rising, full curve].

Which AC50 [1] does the source give for `CCCCN(C(=O)c1ccc2c(c1)OCO2)c1c(N)n(CC(C)C)c(=O)[nH]c1=O` here?
The AC50 was 3.66 µM [rising, partial curve, poor fit].

With `O=C(CCc1ccccc1)Nc1ccc2ccccc2n1` as the compound, how does the AC50 [1] read?
The AC50 was 1.41 µM [falling, full curve].

With `O=C(CSc1nc(Cc2ccccc2)nc2ccccc12)Nc1ccc2c(c1)OCCO2` as the compound, how does the AC50 [1] read?
The AC50 was 35.5 µM [falling, partial curve, poor fit].

Which AC50 [1] does the source give for `CCCn1c(SCC(=O)N2CCCc3ccccc32)nnc1-c1ccco1` here?
The AC50 was 5.01 µM [falling, partial curve].

Which AC50 [1] does the source give for `COc1ccc(/C=N/OCC(=O)NCc2cccs2)c(OC)c1` here?
Its AC50 is 29.1 µM [rising, single point].

For `COc1ccc(C2=NN(C(=O)CSc3ncccn3)C(c3ccc(C)cc3)C2)cc1` (configuration not stated), which AC50 [1] is on record?
The AC50 was 7.31 µM [rising, partial curve, poor fit].

Which AC50 [1] does the source give for `CN1CCN(CC(=O)Nc2ccc(OCc3ccccc3)cc2)CC1` here?
The AC50 was 0.411 µM [falling, full curve, poor fit].

For `O=C(N/N=C\c1ccccc1F)c1ccc(-c2ccccc2)cc1`, which AC50 [1] is on record?
Its AC50 is 3.55 µM [falling, single point].

Which AC50 [1] does the source give for `Cc1cccc(NC2SC(=O)N(c3ccccc3)C2=O)c1` (configuration not stated) here?
Its AC50 is 29.1 µM [falling, partial curve, poor fit].

Which AC50 [1] does the source give for `CCc1c(C)nc2cc(-c3ccc(OC)c(OC)c3)nn2c1NCC1CC1` here?
The AC50 was 13 µM [falling, partial curve, poor fit].

With `O=C(NCCc1cn2ccsc2n1)C1CCCCC1` as the compound, how does the AC50 [1] read?
Its AC50 is 4.11 µM [rising, partial curve, poor fit].

For `CCOc1ccc(N(CC(=O)NCCSCc2ccccc2)S(=O)(=O)c2ccccc2)cc1`, which AC50 [1] is on record?
Its AC50 is 6.31 µM [rising, partial curve, poor fit].

Which AC50 [1] does the source give for `Cc1cc2ccccn2c1C(=O)c1nc(NCc2ccco2)ncc1Cl` here?
Its AC50 is 3.55 µM [rising, full curve, poor fit].

With `CCn1ncc(Cl)c1C(=O)Nc1ccc2c(c1)CCC2` as the compound, how does the AC50 [1] read?
Its AC50 is 2 µM [rising, full curve].

For `O=C1CC(/C=C/c2ccccc2)=Nc2ccccc2N1`, which AC50 [1] is on record?
Its AC50 is 7.08 µM [falling, full curve].

Which AC50 [1] does the source give for `Cc1ccc2c(c1)=C(c1ccccc1)N(O)CC(=O)N=2` here?
Its AC50 is 35.5 µM [rising, single point].

Which AC50 [1] does the source give for `CCOC(=O)Nc1ccc(S(=O)(=O)Nn2cnnc2)cc1` here?
The AC50 was 14.1 µM [rising, single point].

What does the source list for `COc1cc(/C=C(\C#N)c2nc3ccccc3o2)ccc1O`?
AC50 [1]: 22.4 µM [falling, single point]; AC50 [2]: 6.31 µM [rising, partial curve, poor fit]

For `O=C(CNc1ccccc1)N/N=C/c1ccc([N+](=O)[O-])o1`, which AC50 [1] is on record?
The AC50 was 11.2 µM [falling, partial curve, poor fit].

With `Cc1nn2c(=O)cc(COC(=O)c3c(F)cccc3Cl)nc2s1` as the compound, how does the AC50 [1] read?
The AC50 was 13 µM [falling, partial curve].

Which AC50 [1] does the source give for `CSc1nc2c(c(=O)n1Cc1ccccc1)SC(C)C2` (configuration not stated) here?
Its AC50 is 6.51 µM [falling, single point].

Which AC50 [1] does the source give for `Cc1ccccc1N=C/C=C1/C=C(c2ccccc2)OC(C)(C)O1` here?
Its AC50 is 16.4 µM [falling, partial curve].

Which AC50 [1] does the source give for `Cc1cccc(CN2C(=O)N/C(=C/c3ccc(C)s3)C2=O)c1` here?
Its AC50 is 0.517 µM [falling, full curve].

For `CCN(CC)S(=O)(=O)c1ccc(-c2nnc(SCC(=O)Nc3cc(OC)cc(OC)c3)o2)cc1`, which AC50 [1] is on record?
Its AC50 is 0.116 µM [rising, full curve, poor fit].

For `Cc1ccc(N(Cc2cc(=O)[nH]c3ccccc23)C(=O)c2ccco2)cc1`, which AC50 [1] is on record?
Its AC50 is 29.1 µM [falling, single point].

For `CCCOC(=O)c1c(N)sc(C(=O)OCC)c1C`, which AC50 [1] is on record?
Its AC50 is 7.31 µM [rising, full curve, poor fit].

Which AC50 [1] does the source give for `CCc1ccc(OCC2c3cc(OC)c(OC)cc3CCN2C(=O)COc2ccccc2)cc1` (configuration not stated) here?
The AC50 was 22.4 µM [falling, single point].

Which AC50 [1] does the source give for `CC(C)N1CCC(=NNC(=O)c2cccs2)CC1` here?
The AC50 was 14.1 µM [falling, partial curve, poor fit].

With `Cc1ccc(Cn2nnc3c(=O)n(CC(=O)NCc4ccccc4)cnc32)cc1` as the compound, how does the AC50 [1] read?
Its AC50 is 25.1 µM [rising, single point].

And the AC50 [2]?
Its AC50 is 25.1 µM [falling, single point].

With `Cc1cccc(C(=O)c2c[nH]cc2-c2ccccc2)c1` as the compound, how does the AC50 [1] read?
Its AC50 is 5.17 µM [rising, partial curve, poor fit].

Which AC50 [1] does the source give for `CCOC(=O)[C@H]1[C@H]2COc3ccccc3[C@@H]2N2C(=O)c3cc(C)ccc3NC(=O)[C@@]12C` here?
Its AC50 is 29.1 µM [falling, single point].

Which AC50 [1] does the source give for `COc1cc(/C=C2\C(=N)N3N=C(S(C)(=O)=O)SC3=NC2=O)ccc1OS(=O)(=O)c1ccc(C)cc1` here?
Its AC50 is 0.562 µM [falling, full curve, poor fit].

With `O=C(COc1cccc2ccccc12)Nc1nc2ccccc2[nH]1` as the compound, how does the AC50 [1] read?
Its AC50 is 16.4 µM [falling, single point].

With `CCOc1cccc(=O)c2c(C)n(CC3CCCO3)c(C)c12` (configuration not stated) as the compound, how does the AC50 [1] read?
The AC50 was 4.47 µM [rising, full curve, poor fit].

With `Cc1cc(=O)[nH]c(=S)[nH]1` as the compound, how does the AC50 [1] read?
The AC50 was 3.66 µM [rising, partial curve, poor fit].

With `O=C(Nc1cc(C(F)(F)F)ccc1N1CCOCC1)c1ccccc1` as the compound, how does the AC50 [1] read?
The AC50 was 0.184 µM [falling, full curve, poor fit].

With `CC(=O)N1CCc2cc(S(=O)(=O)CCC(=O)NCc3ccc(Cl)cc3)ccc21` as the compound, how does the AC50 [1] read?
Its AC50 is 0.631 µM [falling, partial curve, poor fit].

With `CCc1ccc(NC(=O)CSC2=Nc3ccccc3C3=NC(CC(=O)NCc4ccccc4)C(=O)N23)cc1` (configuration not stated) as the compound, how does the AC50 [1] read?
The AC50 was 15.8 µM [falling, single point].

For `COC(=O)CCN(c1ccccc1)S(=O)(=O)c1cc(-c2cc(C)no2)ccc1OC`, which AC50 [1] is on record?
The AC50 was 4.47 µM [falling, partial curve, poor fit].

With `CCCCCc1ccc(-c2cn(Cc3ccc(C)cc3)nn2)cc1` as the compound, how does the AC50 [1] read?
The AC50 was 6.31 µM [falling, single point].

Which AC50 [1] does the source give for `O=Cc1cn(-c2ccc(F)cc2)c2ccccc12` here?
Its AC50 is 14.6 µM [rising, partial curve, poor fit].

For `CCCc1cc(C(=O)Nc2nccs2)cs1`, which AC50 [1] is on record?
The AC50 was 10.3 µM [falling, partial curve, poor fit].

Which AC50 [1] does the source give for `O=C(O)CN1C(=O)/C(=C/c2cccc(Cl)c2)Oc2ccccc21` here?
The AC50 was 0.316 µM [rising, full curve].

Which AC50 [1] does the source give for `Nc1nc(-c2ccc(NC(=O)c3ccco3)cc2)cs1` here?
Its AC50 is 6.31 µM [falling, full curve].

Which AC50 [1] does the source give for `CCCC(c1nnnn1Cc1ccc(F)cc1)N1CCN(C2CCCCC2)CC1` (configuration not stated) here?
Its AC50 is 35.5 µM [falling, single point].

For `Cn1ccc2c(OCC(=O)Nc3cc(C(F)(F)F)ccc3Cl)cccc2c1=O`, which AC50 [1] is on record?
Its AC50 is 14.1 µM [rising, single point].

For `COCCCNCC(O)COc1ccccc1F` (configuration not stated), which AC50 [1] is on record?
The AC50 was 3.98 µM [falling, full curve].

For `COc1ccc(/C=C/C(=O)Nc2ccccc2C(=O)O)cc1`, which AC50 [1] is on record?
The AC50 was 0.501 µM [falling, full curve].

For `CN(C)CCNC(=O)c1coc(=O)c(Br)c1`, which AC50 [1] is on record?
The AC50 was 2.82 µM [rising, partial curve, poor fit].

With `CC1CCN(C(=O)Cn2cc3c(n2)CCCC3)CC1` as the compound, how does the AC50 [1] read?
The AC50 was 29.1 µM [rising, single point].

Which AC50 [1] does the source give for `Cc1cc(NC(=O)COC(=O)c2cc([N+](=O)[O-])ccc2N2CCOCC2)ccc1Br` here?
The AC50 was 7.31 µM [rising, partial curve, poor fit].

— PubChem BioAssay AID493014 (National Center for Advancing Translational Sciences (NCATS), 2011)
